For 1 substance, binding results are on record in paper PMC12554075.

The target in this experiment is angiotensin II type 1 receptor, C-terminally Rluc-fused (AT1R-Rluc) (UniProt P30556). Kind of experiment: FRET or BRET; real-time BRET kinetics in live HEK293 cells co-expressing AT1R-Rluc (donor) with Venus-Gαq or yPET-β-arrestin 2 (acceptor); 37°C, PBS, Coelenterazine-H 5 µM; cells stimulated with AngII (10 nM), LVV-H7 (10 μM) or their combination, up to 30 min. For orientation: In BRET a luciferase serves as donor, and the signal depends on an acceptor being close.

Results are given in words; binding and its absence hold for the method and conditions named. Binding seen in cells or lysates may run through a third protein. Some results given as binding are weak or reduced against the parent protein; the word gives no strength.

For “yPET-tagged β-arrestin 2 (from UniProt P32121 1-409)”, the binding result is given as “binds”.
